The list shows a part of the results, in another mix than the full data. At the low end of the ranking the order means little.

This test concerns the target T1, ELF3 (UniProt P78545).
T1 sequence: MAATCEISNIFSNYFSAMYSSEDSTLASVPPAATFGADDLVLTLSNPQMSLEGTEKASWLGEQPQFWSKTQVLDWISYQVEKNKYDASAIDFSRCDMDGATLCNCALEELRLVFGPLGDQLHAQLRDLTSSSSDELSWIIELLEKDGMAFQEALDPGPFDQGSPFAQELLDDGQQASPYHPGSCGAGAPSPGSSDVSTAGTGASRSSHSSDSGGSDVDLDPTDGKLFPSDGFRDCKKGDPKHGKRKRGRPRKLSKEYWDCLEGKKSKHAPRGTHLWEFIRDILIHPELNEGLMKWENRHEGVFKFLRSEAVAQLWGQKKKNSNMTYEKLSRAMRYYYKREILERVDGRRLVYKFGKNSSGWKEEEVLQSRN
The experiment in a line: DAPPL (digital affinity profiling via proximity ligation, sequencing). The following applies: 10 mM Tris-HCl pH 7.5, 50 mM NaCl, 1 mM DTT, 4% glycerol, room temperature, 30 min; GST-TFs on glutathione beads, 16-mer random dsDNA library, 0.1% …; high values mean tight binding; double strand, one strand shown; scale: fold enrichment (6-mer frequency, TF over GST control).
As for ATGTGT, the binding signal was 0.983.
Under TACCAC stands 1.25; under TTACGA, 0.998.
Under ATCCCC stands 1.53.
Next, ACCTGC: 1.65; CCCGCC: 1.45; CTGAAT: 1.15.
The sequence CCCTGG registered a binding signal of 1.
Next, TTTTGT: 1.43.
Next, TAAAAG: 1.21; AAAAGC: 1.22; TTGTGG: 1.34.
With TACTGC, the binding signal was 1.34.
Under ATCTCC stands 1.3.
Next, TACTCG: 1.29.
Next, TGACTC: 1.36; CCTCAC: 1.2.
TCCCTT: the binding signal is 1.5.
Next, GAATAC: 0.923.
The sequence TCTTAA yielded a binding signal of 1.24.
In turn, TATTGT came in with a binding signal of 1.23.
CTCAAA showed a binding signal of 1.32.
Under ATCGCC stands 1.12; under ACTCCT, 1.3.
Next, AGCTAC: 1.34.
Next, ATGACA: 1.33.
As to TTACAA, the binding signal stood at 1.22.
Next, AATGCT: 1.21; TCTCCC: 1.78.
Under AATGAG stands 1.25; under ACTGGC, 1.1.
On to CGTACT, for which the binding signal came to 1.15.
Under GGCTAG stands 0.957.
For the sequence TAATGC, the binding signal worked out at 1.23.
In the case of ATCCGC, the binding signal was 1.62.
Next, ATCTAC: 1.33.
Under GTCCAC stands 0.773; under CTGCCC, 1.09; under AACAGG, 1.15.

Values taken from article PMC7862700.
